From ChEMBL document CHEMBL3988442, “University of Dundee, Small-Polar-MMV Screening Library” (2021).

Amino acid sequences for entries named in this document (tags omitted).
UniProt E9BF75, entry or part of it: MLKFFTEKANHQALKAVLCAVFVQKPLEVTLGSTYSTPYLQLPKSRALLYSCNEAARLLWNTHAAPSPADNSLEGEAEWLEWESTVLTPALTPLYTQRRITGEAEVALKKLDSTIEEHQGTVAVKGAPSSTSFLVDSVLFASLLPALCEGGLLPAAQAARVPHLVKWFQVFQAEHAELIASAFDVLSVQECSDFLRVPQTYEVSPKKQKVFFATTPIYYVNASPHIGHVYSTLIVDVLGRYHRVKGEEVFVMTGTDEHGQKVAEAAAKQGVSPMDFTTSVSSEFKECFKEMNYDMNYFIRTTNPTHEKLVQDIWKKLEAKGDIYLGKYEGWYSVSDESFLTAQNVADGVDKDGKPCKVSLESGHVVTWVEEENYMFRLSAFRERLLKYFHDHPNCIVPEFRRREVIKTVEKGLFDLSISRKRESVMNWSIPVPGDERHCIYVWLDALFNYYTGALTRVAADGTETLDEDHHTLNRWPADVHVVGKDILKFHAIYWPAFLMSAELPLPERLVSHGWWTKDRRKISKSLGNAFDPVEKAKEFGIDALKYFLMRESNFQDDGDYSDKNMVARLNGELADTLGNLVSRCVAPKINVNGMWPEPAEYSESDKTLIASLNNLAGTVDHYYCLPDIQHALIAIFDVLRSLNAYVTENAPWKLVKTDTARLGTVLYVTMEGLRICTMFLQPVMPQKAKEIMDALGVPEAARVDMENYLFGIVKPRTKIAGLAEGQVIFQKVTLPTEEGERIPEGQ

LdMetRS: 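Methionyl-tRNA synthetase (putative), Leishmania donovani (UniProt E9BF75). Primary screen of methionyl-tRNA synthetase; the read-out is not stated. The test concentration is not given. The values are filed as inhibition. About 68,000 compounds were tested under these conditions; 0.035% (about 24) showed 50% or more at least once.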
Mtb heat-shock: 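Assay on Mycobacterium tuberculosis, filed only as a heat shock assay from Cornell; the read-out is not stated. The concentration is filed as 10 mM, unlikely as a test dose, so the dose is not known. The record gives no direction; compounds that gave an IC50 in retests scored well above the rest, so higher reads as stronger inhibition. Of about 69,000 compounds tested this way, about 930 (1.4%) reached 50% or more in at least one test.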

Results are percentages, as filed. How 0% and 100% were set is not recorded. Most values in the screen are low, and negative values occur. The compounds are a random part of those screened. A dash means the value is not listed here; it may have been measured.

{"structure": "O=C(c1cc(F)ccc1F)C1CCN(C(=O)c2cnccn2)CC1", "LdMetRS": 27.07, "Mtb heat-shock": -9.721}
{"structure": "CS(=O)(=O)NC1CC2(CCN(CC3CC3)CC2)Oc2ccccc21.O=C(O)C(F)(F)F", "stereo": "stereo not drawn", "Mtb heat-shock": -4.26}
{"structure": "CCOc1ccc(Br)cc1-c1cc(N)[nH]n1", "LdMetRS": 26.83}
{"structure": "COCC(=O)N1CCOC2(CCCN(c3cnccn3)C2)C1.O=C(O)C(F)(F)F", "stereo": "stereo not drawn", "Mtb heat-shock": -12.02}
{"structure": "c1ccc(N2CCCC3(CCN(Cc4ccsc4)C3)C2)nc1", "stereo": "stereo not drawn", "LdMetRS": 14.42}
{"structure": "CC(c1ccon1)N(C)C(=O)C1CCN(C2CCCCC2)CC1", "stereo": "stereo not drawn", "LdMetRS": 19.44, "Mtb heat-shock": -6.266}
{"structure": "COc1cc(CNCCc2cnn(C)c2)cc2c1OCCO2", "LdMetRS": 13.27, "Mtb heat-shock": -2.001}
{"structure": "O=C(CCC1CCN(C2Cc3ccccc3C2)CC1)NCC1CCCO1", "stereo": "stereo not drawn", "LdMetRS": 4.569, "Mtb heat-shock": -12.22}
{"structure": "c1ccc(-c2ncn(CCCN3CCOCC3)c2-c2ccncc2)cc1", "LdMetRS": 9.091, "Mtb heat-shock": -14.53}
{"structure": "Cc1nc(CN2CCc3cc(C(=O)O)c(N(C)C)nc3CC2)cs1.O=C(O)C(F)(F)F.O=C(O)C(F)(F)F", "Mtb heat-shock": 3.488}
{"structure": "Cc1ccc(CN(C)C(=O)CCNS(=O)(=O)c2cccnc2)cc1", "LdMetRS": 11.14, "Mtb heat-shock": -11.47}
{"structure": "OC1(CN2CCOC(Cn3cccn3)C2)CCCCC1", "stereo": "stereo not drawn", "LdMetRS": 19.67, "Mtb heat-shock": -13.44}
{"structure": "Fc1cnc(N2CCC3(CC2)CN(Cc2ccccn2)CCO3)nc1", "LdMetRS": 5.882}
{"structure": "O=C(O)C(F)(F)F.[H][C@]12CCC[C@@H](CN(C)C)[C@@]1([H])CN(c1ccc(C)nn1)C2", "Mtb heat-shock": -7.387}
{"structure": "Cc1nc(N2C[C@H]3CC[C@@H](C2)N3)nc2cc(S(C)(=O)=O)ccc12", "LdMetRS": 7.796}
{"structure": "COCC1CN(Cc2ccc(C)s2)Cc2nnn(C)c21", "stereo": "stereo not drawn", "LdMetRS": 18.78}
{"structure": "C[C@@H]1C(=O)NC[C@H]2CN(Cc3ccc4c(c3)OCO4)C[C@H]21", "LdMetRS": 15.71}
{"structure": "Cc1ncsc1CN1CCn2nc(CCC(=O)N3CCCC3)cc2C1", "LdMetRS": 11.72, "Mtb heat-shock": -2.449}
{"structure": "Cc1cnn(C2CCCN(C(=O)CCCc3ccccn3)C2)c1", "stereo": "stereo not drawn", "LdMetRS": 18.89, "Mtb heat-shock": -9.544}
{"structure": "Cc1ccc(C(=O)N2CCC3(CCC(=O)N(CCN(C)C)C3)CC2)nc1", "LdMetRS": 4.545, "Mtb heat-shock": 16.65}
{"structure": "COc1ccc2c(c1)OCC(Cc1cnc(N)c(C)c1)C2", "stereo": "stereo not drawn", "LdMetRS": 19.1, "Mtb heat-shock": 6.42}
{"structure": "Cc1nc(CSCc2ccc(OCC(F)(F)F)nc2)no1", "LdMetRS": 12.24, "Mtb heat-shock": -5.017}
{"structure": "O=S(=O)(CCCN1CCOC(Cn2cccn2)C1)c1ccccc1", "stereo": "stereo not drawn", "LdMetRS": 18.35, "Mtb heat-shock": -18.62}
{"structure": "Cc1ccc(CN(C)c2nccc(-c3cn(C)nc3C)n2)o1", "LdMetRS": 19.94, "Mtb heat-shock": -1.562}
{"structure": "Fc1ccc(C2CN(c3ncnc4[nH]ncc34)CCO2)cc1", "stereo": "stereo not drawn", "LdMetRS": 11.33, "Mtb heat-shock": -6.897}
{"structure": "Cc1csc(CN(C)C(=O)C2CCC(=O)N(CCN(C)C)C2)n1", "stereo": "stereo not drawn", "LdMetRS": 5.455, "Mtb heat-shock": -19.96}
{"structure": "O=S1(=O)CCC(CNS(=O)(=O)N2CCc3ccccc3C2)C1", "stereo": "stereo not drawn", "LdMetRS": 8.247, "Mtb heat-shock": -3.047}
{"structure": "CCCNC(=O)c1c(-n2cnnn2)sc2c1CCC2", "LdMetRS": 10.56, "Mtb heat-shock": -12.51}
{"structure": "Cc1sc2c(C3CCCNC3)nc(Nc3cccc(F)c3)n2c1C", "stereo": "stereo not drawn", "LdMetRS": 19.94}
{"structure": "Cc1ccc(-c2ccc(C(=O)NCCC(=O)N(C)C)c(F)c2)cc1", "LdMetRS": 11.18, "Mtb heat-shock": 1.125}
{"structure": "Cc1ccc2cc(CN(C)Cc3ncc[nH]3)c(=O)[nH]c2c1", "LdMetRS": 3.015, "Mtb heat-shock": -11.78}
{"structure": "CCOCCN1CCN([C@@H]2c3ccccc3C3(CCNCC3)[C@H]2O)CC1", "LdMetRS": 5.994, "Mtb heat-shock": -24.09}
{"structure": "CC(C)CN1CC(c2nc(-c3ccsc3)c[nH]2)CC1=O", "stereo": "stereo not drawn", "LdMetRS": 6.494, "Mtb heat-shock": 10.75}
{"structure": "Cc1cc(C(=O)N2CCCC3(CN(C)C(=O)O3)C2)c2ccc(F)cc2n1", "stereo": "stereo not drawn", "Mtb heat-shock": -35.02}
{"structure": "COC(=O)N1C[C@H]2CC[C@@H]1CN(Cc1cscn1)C2", "LdMetRS": 11.85}
{"structure": "c1cc(N2CCSCC2)ccc1CNc1cncc2nnnn12", "LdMetRS": 6.475, "Mtb heat-shock": 4.127}
{"structure": "COCCN1CCC2(CCN(CC3CC3)CC2)C1=O.O=C(O)C(F)(F)F", "Mtb heat-shock": -17.81}
{"structure": "COc1cccc(NC(=O)NCC(C)(O)CCSC)c1OC", "stereo": "stereo not drawn", "LdMetRS": 12.95, "Mtb heat-shock": 7.794}
{"structure": "Cc1cccc(CN2C(=O)CO[C@@H]3CN(Cc4nccn4C)C[C@H]32)c1", "LdMetRS": 11.43}
{"structure": "COC(=O)c1cccc(C(=O)N(C)Cc2cccc(O)c2)c1", "LdMetRS": 9.657, "Mtb heat-shock": -15.13}
{"structure": "NC(=O)C(CNC(=O)Cc1ccc(F)cc1)Cc1ccc(F)cc1", "stereo": "stereo not drawn", "LdMetRS": 7.042, "Mtb heat-shock": -15.73}
{"structure": "O=C(O)C(F)(F)F.[H][C@@]12OCCN(c3ccc(C)cc3)[C@@]1([H])CC[C@H]2OCC(=O)N1CCCC1", "Mtb heat-shock": -11.36}
{"structure": "COc1c(CNC2CCc3cc(F)ccc32)c(C)nn1C", "stereo": "stereo not drawn", "LdMetRS": 14.29}
{"structure": "O=C(O)C(F)(F)F.[H][C@@]12CCCO[C@]1([H])[C@H](NC(=O)C1CC1)CN2Cc1ccoc1", "Mtb heat-shock": -3.228}
{"structure": "O=S(=O)(N[C@H]1CC[C@H]1NC1Cc2ccccc2C1)c1cccnc1", "LdMetRS": 15.24, "Mtb heat-shock": 11.67}
{"structure": "Cc1cc(C)c2nc(CN[C@H]3CCCNC3)cc(O)c2c1", "LdMetRS": 12.03, "Mtb heat-shock": 23.73}
{"structure": "O=c1ccc(-c2cccs2)nn1CN1CCN(c2ccccn2)CC1", "LdMetRS": 14.24, "Mtb heat-shock": -22.48}
{"structure": "Cc1nc(Nc2cnccn2)cc(C2CCCN2C2CCOCC2)n1", "stereo": "stereo not drawn", "LdMetRS": 4.531, "Mtb heat-shock": -1.084}

3 of the entries, repeated:

structure	LdMetRS	Mtb heat-shock
CCOCCN1CCN([C@@H]2c3ccccc3C3(CCNCC3)[C@H]2O)CC1	5.994	-24.09
c1ccc(-c2ncn(CCCN3CCOCC3)c2-c2ccncc2)cc1	9.091	-14.53
O=C(O)C(F)(F)F.[H][C@]12CCC[C@@H](CN(C)C)[C@@]1([H])CN(c1ccc(C)nn1)C2	-	-7.387